No constants are given. Whether binding was seen depends on the method and setting. Binding seen in cells or lysates may run through a third protein. Some binding calls cover weakened binding; strength is not graded here.

By UniProt entry, the sequences of proteins in these tests, tags left out. Residues count along the entry.
UniProt P14211, residues 18-416: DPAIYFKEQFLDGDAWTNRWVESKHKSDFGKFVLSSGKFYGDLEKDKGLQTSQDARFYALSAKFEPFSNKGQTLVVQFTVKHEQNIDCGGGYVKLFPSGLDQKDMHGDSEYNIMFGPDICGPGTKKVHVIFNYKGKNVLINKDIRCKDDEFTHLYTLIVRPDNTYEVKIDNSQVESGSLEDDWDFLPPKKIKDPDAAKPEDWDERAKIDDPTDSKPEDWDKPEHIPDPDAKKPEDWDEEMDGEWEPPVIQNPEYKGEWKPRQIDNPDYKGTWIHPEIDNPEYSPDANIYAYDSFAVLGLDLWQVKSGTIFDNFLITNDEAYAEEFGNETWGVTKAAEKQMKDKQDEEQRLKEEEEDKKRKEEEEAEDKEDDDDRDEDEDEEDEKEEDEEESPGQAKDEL

Assay [1] deals with T1, C1q/TNF-related protein 9 (not stated (endogenous in LV tissue; mouse and rat hearts were both used)) (UniProt Q4ZJN1).
T1 sequence: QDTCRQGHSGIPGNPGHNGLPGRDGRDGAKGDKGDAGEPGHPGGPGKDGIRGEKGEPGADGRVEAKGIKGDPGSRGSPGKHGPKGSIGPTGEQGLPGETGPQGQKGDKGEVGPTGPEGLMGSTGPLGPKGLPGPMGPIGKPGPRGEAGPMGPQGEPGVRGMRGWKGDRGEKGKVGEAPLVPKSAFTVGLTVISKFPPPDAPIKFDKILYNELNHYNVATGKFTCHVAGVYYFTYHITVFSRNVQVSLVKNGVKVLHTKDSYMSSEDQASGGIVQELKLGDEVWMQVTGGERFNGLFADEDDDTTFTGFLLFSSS
As to the kind of experiment: co-IP; LV tissue lysate pre-cleared with Dynabeads Protein G or Protein A (4 °C, 2 h), then incubated with normal IgG, anti-CTRP9 or anti-CRT antibody and beads at 4 °C overnight; eluate analysed by Western blot.

In assay [2] the target is calreticulin (not stated (endogenous in LV tissue; mouse and rat hearts were both used)) (UniProt P14211). The description is as above.

For “calreticulin (from UniProt P14211 18-416)”, in assay [1], the binding result is given as “binds”.

B1: C1q/TNF-related protein 9 (protein, UniProt Q4ZJN1-1 20-333)
chain: QDTCRQGHSGIPGNPGHNGLPGRDGRDGAKGDKGDAGEPGHPGGPGKDGIRGEKGEPGADGRVEAKGIKGDPGSRGSPGKHGPKGSIGPTGEQGLPGETGPQGQKGDKGEVGPTGPEGLMGSTGPLGPKGLPGPMGPIGKPGPRGEAGPMGPQGEPGVRGMRGWKGDRGEKGKVGEAPLVPKSAFTVGLTVISKFPPPDAPIKFDKILYNELNHYNVATGKFTCHVAGVYYFTYHITVFSRNVQVSLVKNGVKVLHTKDSYMSSEDQASGGIVQELKLGDEVWMQVTGGERFNGLFADEDDDTTFTGFLLFSSS
B1: the binding result in assay [2] is “binds”.

The record behind these values is article PMC6010444.
